The labels stand for the following.
T1: HA-tagged RITA (UniProt Q96K30)
T1 sequence: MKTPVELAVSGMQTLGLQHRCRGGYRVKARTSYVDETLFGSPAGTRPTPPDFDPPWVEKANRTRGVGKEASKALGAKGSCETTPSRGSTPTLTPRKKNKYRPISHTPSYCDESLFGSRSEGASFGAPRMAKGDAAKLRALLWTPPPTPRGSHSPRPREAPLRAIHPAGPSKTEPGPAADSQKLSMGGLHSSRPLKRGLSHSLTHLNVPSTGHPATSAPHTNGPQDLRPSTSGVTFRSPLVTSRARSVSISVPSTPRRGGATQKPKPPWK

Sequences of proteins named here, by UniProt entry; tags and fusion partners are left off.
UniProt P46821: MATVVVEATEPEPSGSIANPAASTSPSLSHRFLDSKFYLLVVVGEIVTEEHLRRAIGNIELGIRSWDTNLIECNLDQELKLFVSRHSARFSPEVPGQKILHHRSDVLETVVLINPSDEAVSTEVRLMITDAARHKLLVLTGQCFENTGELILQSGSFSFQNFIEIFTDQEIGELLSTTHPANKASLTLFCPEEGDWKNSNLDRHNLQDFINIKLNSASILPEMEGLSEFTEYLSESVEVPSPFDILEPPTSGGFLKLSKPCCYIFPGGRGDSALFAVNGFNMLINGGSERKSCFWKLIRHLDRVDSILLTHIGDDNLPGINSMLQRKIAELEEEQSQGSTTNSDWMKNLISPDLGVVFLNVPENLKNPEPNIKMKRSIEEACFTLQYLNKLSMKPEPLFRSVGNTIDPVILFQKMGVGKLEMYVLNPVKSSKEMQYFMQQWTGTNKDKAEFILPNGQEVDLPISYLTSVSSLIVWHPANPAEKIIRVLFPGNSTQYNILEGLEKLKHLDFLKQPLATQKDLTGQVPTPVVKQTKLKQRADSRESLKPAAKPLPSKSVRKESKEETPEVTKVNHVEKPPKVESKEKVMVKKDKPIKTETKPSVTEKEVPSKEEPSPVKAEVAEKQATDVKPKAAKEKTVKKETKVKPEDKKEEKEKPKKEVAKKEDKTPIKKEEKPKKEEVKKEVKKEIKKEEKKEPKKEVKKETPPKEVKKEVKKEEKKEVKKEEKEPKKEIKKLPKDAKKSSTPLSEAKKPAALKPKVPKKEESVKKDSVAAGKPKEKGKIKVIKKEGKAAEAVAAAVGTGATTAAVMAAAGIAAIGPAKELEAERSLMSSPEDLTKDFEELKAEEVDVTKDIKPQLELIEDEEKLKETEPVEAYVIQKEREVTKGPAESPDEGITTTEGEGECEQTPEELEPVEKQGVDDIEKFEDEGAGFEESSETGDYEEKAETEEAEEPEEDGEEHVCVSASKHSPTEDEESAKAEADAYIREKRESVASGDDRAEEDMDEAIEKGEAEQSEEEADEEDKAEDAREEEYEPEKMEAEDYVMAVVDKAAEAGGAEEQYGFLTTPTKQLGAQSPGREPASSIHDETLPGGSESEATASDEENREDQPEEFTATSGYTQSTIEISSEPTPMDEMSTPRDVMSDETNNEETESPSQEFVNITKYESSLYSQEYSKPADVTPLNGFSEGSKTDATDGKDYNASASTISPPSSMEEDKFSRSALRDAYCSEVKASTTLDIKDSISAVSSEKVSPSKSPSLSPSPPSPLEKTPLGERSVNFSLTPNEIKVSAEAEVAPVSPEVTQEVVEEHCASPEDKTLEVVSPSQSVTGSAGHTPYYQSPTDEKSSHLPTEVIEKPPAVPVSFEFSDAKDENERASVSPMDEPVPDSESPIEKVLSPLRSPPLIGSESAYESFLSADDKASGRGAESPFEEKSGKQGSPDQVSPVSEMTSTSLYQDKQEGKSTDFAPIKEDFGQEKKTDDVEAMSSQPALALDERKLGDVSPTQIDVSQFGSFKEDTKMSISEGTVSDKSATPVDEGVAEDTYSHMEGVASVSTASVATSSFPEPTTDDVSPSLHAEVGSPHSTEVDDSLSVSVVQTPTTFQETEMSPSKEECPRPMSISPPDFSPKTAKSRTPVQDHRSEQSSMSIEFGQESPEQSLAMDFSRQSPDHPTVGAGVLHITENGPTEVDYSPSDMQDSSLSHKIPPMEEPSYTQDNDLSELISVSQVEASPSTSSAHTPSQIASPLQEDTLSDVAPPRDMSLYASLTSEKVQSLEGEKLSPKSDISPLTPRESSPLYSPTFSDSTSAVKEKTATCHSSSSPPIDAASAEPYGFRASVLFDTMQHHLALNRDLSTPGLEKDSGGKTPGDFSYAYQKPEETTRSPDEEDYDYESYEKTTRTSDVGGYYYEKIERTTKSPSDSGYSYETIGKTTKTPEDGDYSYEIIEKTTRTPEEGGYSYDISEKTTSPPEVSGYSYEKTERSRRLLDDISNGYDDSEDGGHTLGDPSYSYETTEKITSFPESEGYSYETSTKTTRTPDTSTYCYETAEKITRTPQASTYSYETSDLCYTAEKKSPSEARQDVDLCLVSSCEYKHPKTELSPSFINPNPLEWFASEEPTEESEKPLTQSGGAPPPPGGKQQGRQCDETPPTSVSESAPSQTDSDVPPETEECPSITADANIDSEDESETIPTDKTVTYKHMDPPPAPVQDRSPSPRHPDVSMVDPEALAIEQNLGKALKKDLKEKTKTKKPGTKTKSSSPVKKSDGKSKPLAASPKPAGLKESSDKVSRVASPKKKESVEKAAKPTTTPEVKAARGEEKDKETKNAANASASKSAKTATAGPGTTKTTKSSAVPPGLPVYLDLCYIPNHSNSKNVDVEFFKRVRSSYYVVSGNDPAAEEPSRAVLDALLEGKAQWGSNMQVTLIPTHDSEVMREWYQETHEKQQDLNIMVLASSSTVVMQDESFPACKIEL
UniProt Q14980: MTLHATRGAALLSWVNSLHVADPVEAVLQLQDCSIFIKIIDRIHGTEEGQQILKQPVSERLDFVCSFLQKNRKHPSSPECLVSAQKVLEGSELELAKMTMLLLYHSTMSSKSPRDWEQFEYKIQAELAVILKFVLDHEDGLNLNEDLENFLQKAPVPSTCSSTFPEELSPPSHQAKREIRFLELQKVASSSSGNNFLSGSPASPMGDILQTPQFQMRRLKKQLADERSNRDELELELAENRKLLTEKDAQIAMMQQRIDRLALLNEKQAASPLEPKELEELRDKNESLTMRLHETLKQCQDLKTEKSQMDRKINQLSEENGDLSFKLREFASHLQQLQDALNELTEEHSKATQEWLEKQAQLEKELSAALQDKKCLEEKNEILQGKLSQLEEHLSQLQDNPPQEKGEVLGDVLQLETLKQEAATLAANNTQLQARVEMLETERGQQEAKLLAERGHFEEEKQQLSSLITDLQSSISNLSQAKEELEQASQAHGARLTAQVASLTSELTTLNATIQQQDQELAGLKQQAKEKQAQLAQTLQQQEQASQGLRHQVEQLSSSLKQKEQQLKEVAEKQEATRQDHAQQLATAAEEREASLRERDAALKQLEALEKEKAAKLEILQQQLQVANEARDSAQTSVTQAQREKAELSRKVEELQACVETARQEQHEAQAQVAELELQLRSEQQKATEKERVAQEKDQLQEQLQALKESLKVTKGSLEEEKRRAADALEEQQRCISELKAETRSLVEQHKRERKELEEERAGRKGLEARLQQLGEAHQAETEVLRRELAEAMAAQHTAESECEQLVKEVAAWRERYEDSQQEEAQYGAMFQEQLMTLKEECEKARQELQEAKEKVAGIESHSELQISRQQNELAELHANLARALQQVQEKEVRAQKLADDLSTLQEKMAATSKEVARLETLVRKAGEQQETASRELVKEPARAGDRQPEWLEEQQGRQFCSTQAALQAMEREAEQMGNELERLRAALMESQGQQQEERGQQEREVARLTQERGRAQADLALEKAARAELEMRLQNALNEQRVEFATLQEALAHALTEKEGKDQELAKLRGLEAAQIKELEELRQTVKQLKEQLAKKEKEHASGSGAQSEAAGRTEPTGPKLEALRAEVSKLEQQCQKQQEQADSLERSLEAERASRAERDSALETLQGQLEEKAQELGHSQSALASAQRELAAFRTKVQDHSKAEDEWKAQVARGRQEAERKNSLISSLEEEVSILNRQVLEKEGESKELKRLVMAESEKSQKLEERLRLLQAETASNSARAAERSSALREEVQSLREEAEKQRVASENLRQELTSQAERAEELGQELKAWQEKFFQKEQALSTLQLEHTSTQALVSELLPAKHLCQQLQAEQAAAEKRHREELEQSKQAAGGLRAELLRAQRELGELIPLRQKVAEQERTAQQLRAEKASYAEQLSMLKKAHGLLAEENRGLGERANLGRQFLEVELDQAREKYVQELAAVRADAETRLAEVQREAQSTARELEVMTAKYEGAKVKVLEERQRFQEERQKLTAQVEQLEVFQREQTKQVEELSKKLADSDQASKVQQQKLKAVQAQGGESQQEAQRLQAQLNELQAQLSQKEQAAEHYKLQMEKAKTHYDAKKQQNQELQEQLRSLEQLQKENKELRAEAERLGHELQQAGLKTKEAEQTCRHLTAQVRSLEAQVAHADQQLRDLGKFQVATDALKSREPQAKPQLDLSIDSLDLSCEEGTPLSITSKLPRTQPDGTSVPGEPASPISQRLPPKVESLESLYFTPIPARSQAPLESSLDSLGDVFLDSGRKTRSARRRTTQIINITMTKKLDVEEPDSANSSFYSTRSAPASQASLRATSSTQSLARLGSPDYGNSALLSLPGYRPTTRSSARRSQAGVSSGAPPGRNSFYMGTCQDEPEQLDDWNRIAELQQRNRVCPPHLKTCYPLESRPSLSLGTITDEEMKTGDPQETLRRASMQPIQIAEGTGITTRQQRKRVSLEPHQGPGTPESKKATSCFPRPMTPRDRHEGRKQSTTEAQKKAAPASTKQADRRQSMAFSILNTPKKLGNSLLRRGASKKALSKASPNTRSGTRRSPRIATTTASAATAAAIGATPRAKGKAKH
UniProt Q06330: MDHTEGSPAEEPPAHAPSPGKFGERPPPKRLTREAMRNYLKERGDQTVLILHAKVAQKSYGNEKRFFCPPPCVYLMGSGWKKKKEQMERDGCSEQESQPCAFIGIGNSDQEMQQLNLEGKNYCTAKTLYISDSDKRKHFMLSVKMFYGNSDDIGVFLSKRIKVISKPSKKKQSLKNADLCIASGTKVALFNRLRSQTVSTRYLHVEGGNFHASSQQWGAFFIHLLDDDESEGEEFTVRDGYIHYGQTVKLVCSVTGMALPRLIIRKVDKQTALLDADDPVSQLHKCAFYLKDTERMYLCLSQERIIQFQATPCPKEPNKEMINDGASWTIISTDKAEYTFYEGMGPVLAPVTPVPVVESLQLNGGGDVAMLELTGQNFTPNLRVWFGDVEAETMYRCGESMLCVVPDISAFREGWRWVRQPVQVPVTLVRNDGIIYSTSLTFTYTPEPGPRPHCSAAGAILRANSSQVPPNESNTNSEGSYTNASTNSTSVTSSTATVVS

B1: LPP (lipoma-preferred partner) (protein, UniProt Q93052 1-612)
chain: MSHPSWLPPKSTGEPLGHVPARMETTHSFGNPSISVSTQQPPKKFAPVVAPKPKYNPYKQPGGEGDFLPPPPPPLDDSSALPSISGNFPPPPPLDEEAFKVQGNPGGKTLEERRSSLDAEIDSLTSILADLECSSPYKPRPPQSSTGSTASPPVSTPVTGHKRMVIPNQPPLTATKKSTLKPQPAPQAGPIPVAPIGTLKPQPQPVPASYTTASTSSRPTFNVQVKSAQPSPHYMAAPSSGQIYGSGPQGYNTQPVPVSGQCPPPSTRGGMDYAYIPPPGLQPEPGYGYAPNQGRYYEGYYAAGPGYGGRNDSDPTYGQQGHPNTWKREPGYTPPGAGNQNPPGMYPVTGPKKTYITDPVSAPCAPPLQPKGGHSGQLGPSSVAPSFRPEDELEHLTKKMLYDMENPPADEYFGRCARCGENVVGEGTGCTAMDQVFHVDCFTCIICNNKLRGQPFYAVEKKAYCEPCYINTLEQCNVCSKPIMERILRATGKAYHPHCFTCVMCHRSLDGIPFTVDAGGLIHCIEDFHKKFAPRCSVCKEPIMPAPGQEETVRIVALDRDFHVHCYRCEDCGGLLSEGDNQGCYPLDGHILCKTCNSARIRVLTAKASTDL

These are yes or no findings as the source states them, for the method shown. In cells and extracts the contact can be indirect. These calls come from enrichment with a bait or labelling near it, and not all partners need be listed. Sequences can lack the tags named with a protein.

The target in this assay is T1, HA-tagged RITA. The assay can be described thus: affinity purification with mass spectrometry; re-analysis of an earlier mass spectrometry analysis (Hoock et al., 2019) of HA-tagged RITA immunoprecipitates from transiently transfected HEK293T cells; partners with a weighted D score >= 1 presented.
As to “MAP1B (microtubule-associated protein 1B) (from UniProt P46821 1-2468)”, the binding entry was “binds”.
The value for “NUMA1 (nuclear mitotic apparatus protein 1) (from UniProt Q14980 1-2115)” was “binds”; that for “RBP-J (recombination signal binding protein for immunoglobulin kappa J region) (from UniProt Q06330 1-500)” was “binds”.
The value for B1 was “binds”.
